Laboratory results published in PMC7641760.

System: human alpha-thrombin (Homo sapiens)
Experiment: EMSA
Details: Kd printed only in graph, EMSA: 1x binding buffer (PBSMT pH 7.2: 137 mM NaCl, 2.68 mM KCl, 8.1 mM Na2HPO4, 1.76 mM KH2PO4, 1 mM MgCl2, 0.025% Tween-20), <50 pM 32P-DNA, 30 min, commercial protein, folded or branched DNA; for binding result: label: 32P

Sequence | binding result | further results
ATCTCGACTAGTCATAGGGGGCGCGAACATACGCGGTTGGTGTGGTTGGCTGACAATACTCGT [LTBA4T] | binds more weakly | 
GGTTGGTGTGGTTGG [TBA15] |  | binding signal (label: 32P (direct EMSA), unlabeled as competitor, scale: fold weaker than CTBA4T): 800
ATCTCGACTAGTCATTTTTTTTTTTTTTTTTTTTGGTTGGTGTGGTTGGTTTTTTTTTTTTTTTTTTTTTGTCTCGGAT [CTBA4MT] |  | binding result (circular (5'-3' ligated)): binds more weakly
ATCTCGAGTCATAGGGGGCGCGAACATACGCGGTTGGTGTGGTTGGCTGACTCGT [LTBA4T-B1] | binds more weakly | 

A weaker result is weaker than the reference pair of the same experiment. For at least one entry, the source does not settle the construct or the ends of the probe. The direction of at least one scale is not stated here.
